{"source": "PubChem BioAssay AID504444", "about": "(National Center for Advancing Translational Sciences (NCATS), 2011)", "note": "Among all 360,000 compounds or so, about 7,500 (2.1%) were called active. The inconclusive results got no clear call from the source; some entries with a clear call stand among them for comparison. Calls come from the whole dose curve; as a rule, active = well fitted inhibition curve with a large enough effect; inconclusive = small, poorly fitted or top-dose-only effect, or effect the other way; inactive = flat fitted curve, though single readings scatter. Potencies beside an inconclusive call are fits to weak or partial responses and may not hold up. % is set by controls: 0 for no effect and ±100 for the full control effect; potency is the fitted concentration of half-maximal effect.", "data": [{"assay": "Nrf2 qHTS screen for inhibitors; note: nearly all actives have a fitted effect of over 60% in size", "details": "A549 ARE-Fluc reporter, luciferase luminescence, 18-24 h; activity change, negative = inhibition: at 46 µM (top of the series)", "procedure,_shortened": "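A549 ARE_Fluc cells (5000/well, 5% FBS OPTI-MEM) pre-incubated 2 h, then treated with compounds 18-24 h at 37C/5% CO2 in concentration-response. CellTiter-Fluor viability read first; BugLite luciferase luminescence after 15 min at room temperature gives Nrf2 activity.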", "values": [{"smiles": "Cc1csc2nc(CNS(=O)(=O)c3ccc(-c4ccccc4)cc3)cn12", "Potency": "inconclusive: 9.2 µM [falling, partial curve]"}, {"smiles": "CCn1cc([N+](=O)[O-])c(C(=O)N2N=C(c3ccc(Cl)c(Cl)c3)CC2c2ccccc2O)n1", "note": "(configuration not stated)", "Potency": "inconclusive: 23.1 µM [falling, single point]"}, {"smiles": "O=C(NCCSc1ccccc1)c1ccc(Br)cc1", "Potency": "inconclusive: 0.651 µM [activator, full curve, poor fit]"}, {"smiles": "CC(C)CN1CCC(=O)N([C@H](CSc2ccccc2)Cc2ccccc2)CC1", "activity change, negative = inhibition": "inactive: 0.59%"}, {"smiles": "O=C(NCc1cccs1)c1cc(-c2cccc(Cl)c2)on1", "Potency": "inconclusive: 20.6 µM [falling, single point]"}, {"smiles": "CC(/C=C/c1ccc(N(C)C)cc1)=N/N=C1/NC(=O)CC(C(=O)Nc2ccc(Cl)cc2)S1", "note": "(configuration not stated)", "Potency": "inconclusive: 29.1 µM [falling, single point]"}, {"smiles": "Cc1ccc(S(=O)(=O)c2cccc(S(=O)(=O)N3CCCC3)c2)cc1S(=O)(=O)N1CCCC1", "Potency": "active: 8.2 µM"}, {"smiles": "COc1ccc(CNC(=O)Cn2c(=O)c3cccn3c3cccnc32)cc1", "activity change, negative = inhibition": "inactive: 17.7%"}, {"smiles": "OC(CN1C2=NCCN2c2ccccc21)c1ccc2c(c1)OCO2", "note": "(configuration not stated)", "Potency": "inconclusive: 29.1 µM [falling, single point]"}, {"smiles": "CC(=O)OCC(NC(=O)C1CCCN1C(=O)OC(C)(C)C)C1OC(n2cc(F)c(=O)[nH]c2=O)C(OC(C)=O)C1OC(C)=O", "note": "(configuration not stated)", "activity change, negative = inhibition": "inactive: 19.9%"}, {"smiles": "COCCn1c(N)c(Sc2ccc(Cl)cc2)c(=O)[nH]c1=O", "Potency": "inconclusive: 5.8 µM [falling, full curve, poor fit]"}, {"smiles": "CC(=O)Nc1ccc(S(=O)(=O)Nc2ccc(C)c(C)c2)cc1", "Potency": "inconclusive: 14.6 µM [falling, partial curve, poor fit]"}, {"smiles": "CN(C)c1nc(SCC(=O)Nc2ccccc2)nc(N2CCOCC2)n1", "Potency": "inconclusive: 1.46 µM [falling, full curve, poor fit]"}, {"smiles": "Cc1ccc2[nH]c(=O)c(C(c3nnnn3C3CCCC3)N3CCCc4ccccc43)cc2c1", "note": "(configuration not stated)", "Potency": "inconclusive: 29.1 µM [falling, single point]"}, {"smiles": "C=C[C@@H]1c2cccc(C)c2N(S(=O)(=O)c2ccc(C)cc2)[C@H](c2ccccc2)C1(C#N)S(=O)(=O)c1ccccc1", "note": "(some centres not stated)", "Potency": "inconclusive: 5.17 µM [activator, partial curve, poor fit]"}, {"smiles": "Cc1ccc(S(=O)(=O)c2nc(S(=O)(=O)CCO)sc2N2CCOCC2)cc1", "Potency": "inconclusive: 0.184 µM [falling, single point]"}, {"smiles": "Cc1noc(C)c1S(=O)(=O)N(C)C[C@H]1Oc2c(NC(=O)Nc3ccc(C(F)(F)F)cc3)cccc2C(=O)N([C@H](C)CO)C[C@@H]1C", "Potency": "active: 20.6 µM"}, {"smiles": "Cc1cnc(CN(C)Cc2c(C(=O)N3CCc4ccccc4C3)nc3ccc(Cl)cn23)[nH]1", "Potency": "inconclusive: 7.31 µM [falling, partial curve, poor fit]"}, {"smiles": "O=C(Nc1nc2ccccc2[nH]1)c1cccc([N+](=O)[O-])c1", "Potency": "inconclusive: 3.66 µM [activator, partial curve]"}, {"smiles": "O=C(CCNC(=O)c1ccc([N+](=O)[O-])cc1)Nc1ccc(Cl)c(S(=O)(=O)N2CCOCC2)c1", "Potency": "active: 23.1 µM"}, {"smiles": "NS(=O)(=O)c1ccc(N=Nc2c(=O)[nH]n3c(=O)c4c([nH]c23)CCCC4)cc1", "activity change, negative = inhibition": "inactive: -4.11%"}, {"smiles": "C=CCn1c(SCC(=O)Nc2ccc(O)cc2)nc2sc(CC)cc2c1=O", "Potency": "inconclusive: 32.6 µM [falling, single point]"}, {"smiles": "COc1ccc(CCC(=O)Nc2ccc(N3CCOCC3)c(S(=O)(=O)Nc3ccc(OC)cc3)c2)cc1", "Potency": "inconclusive: 13 µM [falling, partial curve, poor fit]"}, {"smiles": "COc1ccnc(Oc2ccccc2)c1C#N", "Potency": "inconclusive: 2.06 µM [falling, partial curve, poor fit]"}, {"smiles": "CC(=O)Nc1ccc(NS(=O)(=O)c2ccc3c(c2)oc(=O)n3C)cc1", "activity change, negative = inhibition": "inactive: -14.7%"}, {"smiles": "Cc1ccc2nc3c(cc2c1)c(C)nn3-c1ccccc1", "Potency": "inconclusive: 20.6 µM [activator, partial curve]"}, {"smiles": "CC1CCc2onc(C(=O)Nc3ccc(Cl)cc3)c2C1", "note": "(configuration not stated)", "activity change, negative = inhibition": "inactive: -26.4%"}, {"smiles": "NC(=O)c1ccc(Nc2ccc([N+](=O)[O-])cc2[N+](=O)[O-])cc1", "Potency": "inconclusive: 6.51 µM [activator, partial curve, poor fit]"}, {"smiles": "C[C@@H]1NS(=O)(=O)c2cc(Cl)ccc2O[C@@H]1c1ccccc1", "activity change, negative = inhibition": "inactive: -9.06%"}, {"smiles": "O=C(/C=C/c1ccc([N+](=O)[O-])cc1)c1ccccc(=O)c1O", "Potency": "inconclusive: 29.1 µM [falling, single point]"}, {"smiles": "Nc1ccccc1-c1ccccc1N", "activity change, negative = inhibition": "inactive: 6.58%"}, {"smiles": "C/C(=N\\NC(=S)NCc1ccccc1)c1ccc2ccccc2c1", "Potency": "inconclusive: 23.1 µM [activator, single point]"}, {"smiles": "COC(=O)c1ccc(NC(=O)CSC2=NCCN2)cc1", "Potency": "inconclusive: 10.3 µM [activator, partial curve]"}, {"smiles": "CCOC(=O)c1[nH]cnc1C(=O)Nc1ccc(Cl)cc1", "Potency": "inconclusive: 4.11 µM [falling, partial curve, poor fit]"}, {"smiles": "COc1cccc(-c2nc(-c3ccc(Br)o3)no2)c1", "Potency": "inconclusive: 23.1 µM [activator, partial curve]"}, {"smiles": "Cc1ccsc1C(=O)Nc1ccc2c(c1)OCCO2", "Potency": "inconclusive: 0.461 µM [activator, full curve]"}, {"smiles": "CC(=O)N1CCC(N(Cc2ccc(C)o2)C(=O)Nc2ccccc2F)CC1", "Potency": "inconclusive: 18.4 µM [activator, single point]"}, {"smiles": "CCCN(c1ccccc1F)S(=O)(=O)c1ccc2c(c1)C(C)(C)C(=O)N2C", "activity change, negative = inhibition": "inactive: -29%"}, {"smiles": "CCN(c1ccccc1)S(=O)(=O)c1cc(C(=O)OCC(=O)c2c(N)n(C)c(=O)n(C)c2=O)ccc1C", "Potency": "active: 18.4 µM"}, {"smiles": "Cc1cccc(/N=C/c2c(O)ccc3oc4c(c23)CCCC4)n1", "activity change, negative = inhibition": "inactive: 5.79%"}, {"smiles": "COc1ccc(-c2cc(CCCC(=O)NCCc3cc(OC)ccc3OC)no2)cc1", "Potency": "inconclusive: 20.6 µM [falling, partial curve]"}, {"smiles": "Cc1cc(NC(=O)OC2CCCCC2)ccc1[N+](=O)[O-]", "Potency": "inconclusive: 0.517 µM [activator, full curve, poor fit]"}, {"smiles": "O=C(CCl)N1N=C(c2ccco2)CC1c1cccs1", "note": "(configuration not stated)", "Potency": "inconclusive: 29.1 µM [falling, single point]"}, {"smiles": "O=[N+]([O-])c1ccc(-c2ccn[nH]2)o1", "activity change, negative = inhibition": "inactive: -10.1%"}, {"smiles": "COc1cccc(NC(=O)C2COc3ccccc3O2)c1", "note": "(configuration not stated)", "Potency": "inconclusive: 10.3 µM [activator, partial curve]"}, {"smiles": "O=C(Nc1cccc(S(=O)(=O)N2CCCCC2)c1)c1cccs1", "Potency": "inconclusive: 29.1 µM [falling, single point]"}, {"smiles": "Cc1cccc(NS(=O)(=O)c2ccc(-c3cnc(C4CC4)o3)cc2)c1C", "activity change, negative = inhibition": "inactive: -2.16%"}, {"smiles": "O=C(Nc1ccccn1)c1ccc2c(=O)n3c(nc2c1)CCCCC3", "Potency": "inconclusive: 2.06 µM [activator, partial curve]"}, {"smiles": "CC(C)c1ccc(C(CC(=O)c2ccc(Cl)cc2)C(=O)O)cc1", "note": "(configuration not stated)", "Potency": "inconclusive: 32.6 µM [falling, single point]"}, {"smiles": "Cc1ccc(-c2nc(CS(=O)CC(=O)NCCN3CCCCCC3)c(C)o2)cc1", "note": "(configuration not stated)", "activity change, negative = inhibition": "inactive: 8.41%"}, {"smiles": "Cc1ccc(-c2cc(C(=O)NCc3ccccn3)no2)cc1", "Potency": "inconclusive: 8.2 µM [activator, partial curve]"}, {"smiles": "CN(C(=O)C1CCN(S(=O)(=O)c2cccc3nonc23)CC1)C1CCCCC1", "Potency": "inconclusive: 14.6 µM [falling, partial curve, poor fit]"}, {"smiles": "O=C(CNC(=O)C1CCCCC1)OCC(=O)c1ccc(C2CCCCC2)cc1", "activity change, negative = inhibition": "inactive: -0.89%"}, {"smiles": "CCOC(=O)C1CCCN(S(=O)(=O)c2cc(-c3onc(C)c3C)ccc2OC)C1", "note": "(configuration not stated)", "activity change, negative = inhibition": "inactive: -12.1%"}, {"smiles": "Cc1c(C(=O)OCC(=O)N(C)c2ccccc2)oc2ccccc12", "Potency": "inconclusive: 5.8 µM [activator, partial curve]"}, {"smiles": "Cc1ccc(-c2nsc(SCC(=O)NCC3CCCO3)n2)cc1", "note": "(configuration not stated)", "Potency": "inconclusive: 23.1 µM [falling, single point]"}, {"smiles": "Cc1nn(-c2ccccc2)c2sc(C(=O)NNC(=O)COc3cccc4ccccc34)cc12", "Potency": "inconclusive: 14.6 µM [falling, partial curve, poor fit]"}, {"smiles": "Cc1c(NC(=O)COc2ccc3ccc(=O)oc3c2)c(=O)n(-c2ccccc2)n1C", "activity change, negative = inhibition": "inactive: -3.28%"}, {"smiles": "CCOc1ccccc1NC(=O)c1nc(S(=O)(=O)Cc2cccc(C)c2)ncc1Cl", "Potency": "inconclusive: 8.2 µM [falling, partial curve]"}, {"smiles": "CC(=O)N1CCN(c2ccc(NC(=O)c3ccc4c(c3)OCCO4)cc2Cl)CC1", "Potency": "inconclusive: 18.4 µM [falling, partial curve]"}, {"smiles": "CCCCCCN1C=CC=C/C1=C/C=C(C#N)C#N", "activity change, negative = inhibition": "inactive: -2.87%"}, {"smiles": "COc1ccc(-c2cccc(CCC(=O)N3CCN(c4cc(C)ccc4C)CC3)c2)cc1", "Potency": "inconclusive: 29.1 µM [falling, single point]"}, {"smiles": "Nc1nc2c(ncn2COCCO)c(=O)[nH]1", "Potency": "inactive"}, {"smiles": "COc1ccc2c(c1)C1(C)CC(C)(C)N2C(=O)N1c1ccccc1", "note": "(configuration not stated)", "Potency": "inconclusive: 18.4 µM [falling, partial curve, poor fit]"}, {"smiles": "CC(C)C[C@H](N)c1nnc(SCc2ccc(Cl)cc2Cl)o1", "Potency": "inconclusive: 16.4 µM [falling, partial curve, poor fit]"}, {"smiles": "C=CCN(c1ccc(F)cc1)S(=O)(=O)c1cc(C(=O)NC2CCC(O)CC2)ccc1Cl", "note": "(configuration not stated)", "Potency": "active: 16.4 µM"}, {"smiles": "Cc1ccc(C(=O)N2CCN(c3ccc([N+](=O)[O-])cc3)CC2)o1", "Potency": "inconclusive: 32.6 µM [falling, single point]"}]}]}
